Primary screen of a compound library

Protein sequences, listed by entry. Tags and fused reporters are not part of them. Residues count along the entry.
UniProt Q8IDJ8, 1-583: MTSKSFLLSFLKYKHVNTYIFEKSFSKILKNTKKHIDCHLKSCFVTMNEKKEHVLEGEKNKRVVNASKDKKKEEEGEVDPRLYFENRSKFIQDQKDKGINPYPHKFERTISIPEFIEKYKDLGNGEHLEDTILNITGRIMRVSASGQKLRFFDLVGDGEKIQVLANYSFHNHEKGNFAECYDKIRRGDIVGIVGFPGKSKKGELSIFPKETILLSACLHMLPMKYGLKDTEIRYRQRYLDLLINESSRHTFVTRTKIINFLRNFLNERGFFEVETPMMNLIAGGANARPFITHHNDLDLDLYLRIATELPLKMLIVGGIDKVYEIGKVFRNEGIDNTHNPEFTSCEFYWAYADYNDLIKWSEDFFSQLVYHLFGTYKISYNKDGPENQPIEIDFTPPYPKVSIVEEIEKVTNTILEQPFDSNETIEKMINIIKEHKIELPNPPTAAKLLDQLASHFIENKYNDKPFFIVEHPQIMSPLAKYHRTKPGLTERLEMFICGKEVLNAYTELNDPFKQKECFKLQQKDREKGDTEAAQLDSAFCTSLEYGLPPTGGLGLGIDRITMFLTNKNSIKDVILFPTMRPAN
UniProt A4I591, 1-473: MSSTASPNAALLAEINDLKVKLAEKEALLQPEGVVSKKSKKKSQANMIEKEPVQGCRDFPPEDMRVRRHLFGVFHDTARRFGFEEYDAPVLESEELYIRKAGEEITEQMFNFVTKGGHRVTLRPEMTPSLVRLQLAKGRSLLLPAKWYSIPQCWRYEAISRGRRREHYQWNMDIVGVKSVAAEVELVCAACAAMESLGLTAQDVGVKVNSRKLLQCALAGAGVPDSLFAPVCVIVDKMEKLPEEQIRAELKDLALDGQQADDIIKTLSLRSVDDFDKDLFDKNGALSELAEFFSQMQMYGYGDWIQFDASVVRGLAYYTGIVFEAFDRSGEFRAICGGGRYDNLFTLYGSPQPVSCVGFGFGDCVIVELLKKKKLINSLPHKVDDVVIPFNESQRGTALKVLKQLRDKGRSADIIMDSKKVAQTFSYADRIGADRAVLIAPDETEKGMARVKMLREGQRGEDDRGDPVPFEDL
UniProt Q4DA54, 1-478: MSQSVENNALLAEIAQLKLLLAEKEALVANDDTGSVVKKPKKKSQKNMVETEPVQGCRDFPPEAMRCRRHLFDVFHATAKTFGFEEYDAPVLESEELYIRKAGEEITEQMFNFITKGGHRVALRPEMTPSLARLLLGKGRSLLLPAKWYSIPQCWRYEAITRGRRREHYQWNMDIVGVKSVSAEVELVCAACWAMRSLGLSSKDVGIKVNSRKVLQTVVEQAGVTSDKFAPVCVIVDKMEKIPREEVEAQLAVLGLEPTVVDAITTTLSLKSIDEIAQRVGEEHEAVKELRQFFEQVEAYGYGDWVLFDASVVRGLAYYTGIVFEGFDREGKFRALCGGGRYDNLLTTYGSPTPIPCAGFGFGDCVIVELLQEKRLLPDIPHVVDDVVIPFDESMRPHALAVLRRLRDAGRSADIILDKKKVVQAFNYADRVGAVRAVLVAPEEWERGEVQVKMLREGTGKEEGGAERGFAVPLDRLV
UniProt P9WPC5, whole entry: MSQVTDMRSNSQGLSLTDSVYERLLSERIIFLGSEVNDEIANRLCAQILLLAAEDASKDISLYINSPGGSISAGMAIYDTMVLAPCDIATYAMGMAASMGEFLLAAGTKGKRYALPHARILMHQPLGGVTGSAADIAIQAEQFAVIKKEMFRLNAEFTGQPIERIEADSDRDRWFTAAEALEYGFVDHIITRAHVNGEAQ
UniProt P9WPC3, whole entry partner: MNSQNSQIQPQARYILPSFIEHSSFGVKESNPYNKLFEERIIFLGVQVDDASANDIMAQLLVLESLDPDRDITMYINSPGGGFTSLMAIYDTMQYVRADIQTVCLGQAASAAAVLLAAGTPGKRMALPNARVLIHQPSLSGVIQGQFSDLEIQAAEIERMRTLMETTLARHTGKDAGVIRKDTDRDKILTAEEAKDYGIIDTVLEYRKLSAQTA

Data taken from ChEMBL document CHEMBL3988442, “University of Dundee, Small-Polar-MMV Screening Library” (2021).

PfKRS1: 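Enzyme assay of the cytosolic lysyl-tRNA synthetase in 384-well plates, read by luminescence. Target: Lysine-tRNA ligase, Plasmodium falciparum 3D7 (UniProt Q8IDJ8). Compounds at 30 µM. Direction is inferred from only a few compounds that gave an IC50; most scored high, so higher reads as stronger inhibition. Size under these conditions: about 69,000 compounds, about 49 of them at 50% or above in at least one test.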
LiHisRS: 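Enzyme assay of histidyl-tRNA synthetase; the read-out is not stated. Target: Histidine-tRNA ligase, Leishmania infantum (UniProt A4I591). Tested at 30 µM. Higher reads as stronger inhibition (inferred: compounds with an IC50 in retests scored well above the rest). The assay is labelled LdHisRS but filed under L. infantum. About 69,000 compounds were tested under these conditions; 0.6% (about 410) showed 50% or more at least once.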
TcHisRS: 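Histidine-tRNA ligase, Trypanosoma cruzi CL Brener (UniProt Q4DA54). Enzyme assay of histidyl-tRNA synthetase; the read-out is not stated. Concentration: 30 µM. Higher reads as stronger inhibition (inferred: compounds with an IC50 in retests scored well above the rest). Size under these conditions: about 69,000 compounds, about 31 of them at 50% or above in at least one test.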
Leishmania in macrophages: 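Cell assay of Leishmania donovani living inside macrophages; the read-out is not stated. Compounds at 30 µM. Direction is inferred from retests: higher values go with stronger inhibition. About 69,000 compounds were tested under these conditions; 1.5% (about 1,000) showed 50% or more at least once.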
ClpP1P2: 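Protease assay of ClpP1P2, read by the AMC dye that it sets free. Target: ClpP1P2, Mycobacterium tuberculosis (UniProt P9WPC5 and UniProt P9WPC3). Tested at 50 µM. Higher reads as stronger inhibition, judged from the few compounds that gave an IC50. Most other retested compounds had strongly negative values. Of about 69,000 compounds tested this way, about 10 (0.015%) reached 50% or more in at least one test.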

Values are the deposited “Percent Effect”, in %. The controls that fix the scale are not given in the record; negative values are as filed. The compounds are a random part of those screened. Two or more numbers in one place are separate tests of the same structure; such repeats can differ widely.

structure: O=C(CCc1cc2n(n1)CCCNC2)N1CCN(C2CCCC2)C(=O)C1
PfKRS1: 5.732
LiHisRS: 12.86
TcHisRS: 6.383
Leishmania in macrophages: 10.92
ClpP1P2: 1.812

structure: CC(C)S(=O)(=O)N1CCCC(c2nnc(Cn3ccnc3)n2C)C1 (configuration not stated)
PfKRS1: 2.214
LiHisRS: 13.11
TcHisRS: 0
Leishmania in macrophages: 1.455
ClpP1P2: -1.178

structure: CC(C)n1cc(S(=O)(=O)N2CCCC(N3CCCCC3)C2)cn1 (configuration not stated)
PfKRS1: 9.101
LiHisRS: 25.64
TcHisRS: 6.024
Leishmania in macrophages: 40.11 and 27.53
ClpP1P2: -9.051

structure: Cc1cc(=O)n2nc(Oc3cc(Cl)cc(Cl)c3)sc2n1
PfKRS1: 0.09984
LiHisRS: 6.024
TcHisRS: 4.478
Leishmania in macrophages: -38.32
ClpP1P2: 10.57

structure: CC(=O)N1CC2(CCN(C(=O)CO)CC2)c2cc(C)ccc21
PfKRS1: 6.822
LiHisRS: 18.42
TcHisRS: 5.747
Leishmania in macrophages: 13.91
ClpP1P2: 3.451

structure: O=C(Nc1cnccn1)[C@H]1CO[C@H]2CCN(c3ncc(F)cn3)C[C@H]2C1
PfKRS1: -0.1179
LiHisRS: 20.83
TcHisRS: 9.524
ClpP1P2: -7.892

structure: CC(=O)N1CCCN(Cc2ccon2)c2ccccc21
PfKRS1: -1.934
LiHisRS: 5
TcHisRS: 8.824
Leishmania in macrophages: -3.277
ClpP1P2: 3.391

structure: C[C@H]1CN(C(=O)c2cccc(F)c2Cl)CCN1S(C)(=O)=O
PfKRS1: -7.176
LiHisRS: 4.938
TcHisRS: 0.6135
Leishmania in macrophages: -47.66
ClpP1P2: -5.683

structure: CCN(C)c1ncnc2c1CCN(C(=O)c1ccoc1C)CC2
PfKRS1: 0.2496
LiHisRS: 15.07
TcHisRS: 5.941
ClpP1P2: -2.773

structure: CCc1nc(CN2CC[C@@](O)(CCOC)[C@H](C)C2)cs1
PfKRS1: -2.48
LiHisRS: 2.151
TcHisRS: 1.554
Leishmania in macrophages: 14.95
ClpP1P2: 6.69

structure: CCC(CN1CCOCC1)n1cncc1-c1ccc2c(c1)CCCN2C.Cl (configuration not stated)
Leishmania in macrophages: -19.16

structure: Cc1nc[nH]c1CN1CCCC(CNC(=O)c2ccc(N)nc2)C1 (configuration not stated)
PfKRS1: 0.7245
LiHisRS: 3.333
TcHisRS: 3.409
Leishmania in macrophages: -30.79
ClpP1P2: 6.028

structure: Cn1cc(CN2CCCC3(CCN(C(=O)c4cnccn4)C3)C2)cn1.O=C(O)C(F)(F)F.O=C(O)C(F)(F)F (configuration not stated)
Leishmania in macrophages: 26.24

structure: Cc1cnn(C(C)C2CC2)c1NC(=O)c1ccncc1 (configuration not stated)
PfKRS1: -3.134
LiHisRS: 1.905
TcHisRS: 7.438
Leishmania in macrophages: -24.81
ClpP1P2: -7.508

structure: O=C(c1n[nH]cc1Cl)N1CCOC(Cc2cccc(C(F)(F)F)c2)C1 (configuration not stated)
PfKRS1: 2.878
LiHisRS: 15.79
TcHisRS: -2.186
Leishmania in macrophages: 28.1
ClpP1P2: -7.648

structure: Cc1csc(CNC(=O)NC2CCN(c3ncccn3)CC2)n1
PfKRS1: 2.001
LiHisRS: 19.05
TcHisRS: 2.479
Leishmania in macrophages: 23.12
ClpP1P2: 2.493

structure: CC(=O)c1ccc(C(=O)N(C)Cc2nc(-c3ccccn3)no2)s1
PfKRS1: 0.1075
LiHisRS: 29.82
TcHisRS: -8.743
Leishmania in macrophages: -16.27
ClpP1P2: 1.804

structure: O=C(c1ccsc1)N1CCc2ncc(Cn3cncn3)n2CC1
PfKRS1: 4.501
LiHisRS: 16
TcHisRS: 7.843
Leishmania in macrophages: 14.16
ClpP1P2: -7.059

structure: CCc1ncc(C(=O)N2CCCCC2Cn2cccn2)s1 (configuration not stated)
PfKRS1: 2.765
LiHisRS: 0
TcHisRS: 2.682
Leishmania in macrophages: -8.827
ClpP1P2: -3.481

structure: CC(C)(C)OC(=O)N1CSC[C@@H]1C(=O)NCc1ccncc1
PfKRS1: 5.114
LiHisRS: 24.14
TcHisRS: 5.759
Leishmania in macrophages: -23.05
ClpP1P2: 4.709

structure: CN1CCc2nc(C3CCCN(C(=O)CC(C)(C)C)C3)ncc2C1 (configuration not stated)
PfKRS1: 4.176
LiHisRS: 39.13
TcHisRS: 30.77
Leishmania in macrophages: 14.46 and 22.86
ClpP1P2: -0.1361

structure: CC(=O)N(Cc1ccsc1)c1ccccc1
PfKRS1: 3.329
LiHisRS: 14.89
TcHisRS: 8.671
Leishmania in macrophages: 22.21
ClpP1P2: -7.944

structure: CCN(CC1CCOC1)C(=O)c1ccccc1NS(=O)(=O)CC (configuration not stated)
PfKRS1: 0.9336
LiHisRS: 13.64
TcHisRS: 0
Leishmania in macrophages: 23.48
ClpP1P2: 4.556

structure: COCCN1CCC(c2nc3ccc(-c4ccccc4)cn3n2)CC1
PfKRS1: 5.82
LiHisRS: 9.677
TcHisRS: 3.509
ClpP1P2: -21.66

structure: Cn1cc(CN2CCC3(CC2)CC(c2ccncc2)C(=O)N3)cn1.O=C(O)C(F)(F)F.O=C(O)C(F)(F)F (configuration not stated)
Leishmania in macrophages: 3.212

structure: O=C(c1ccc(Cl)cc1)N1CCn2c(nn(-c3cccc(Cl)c3)c2=O)C1
PfKRS1: 4.202
LiHisRS: 2.759
TcHisRS: -5.325
Leishmania in macrophages: 18.45
ClpP1P2: 3.192

Once more, the final 2:

{"structure": "Cn1cc(CN2CCC3(CC2)CC(c2ccncc2)C(=O)N3)cn1.O=C(O)C(F)(F)F.O=C(O)C(F)(F)F", "stereo": "configuration not stated", "Leishmania in macrophages": 3.212}
{"structure": "O=C(c1ccc(Cl)cc1)N1CCn2c(nn(-c3cccc(Cl)c3)c2=O)C1", "PfKRS1": 4.202, "LiHisRS": 2.759, "TcHisRS": -5.325, "Leishmania in macrophages": 18.45, "ClpP1P2": 3.192}